Values of other authors, collected in patent US7901689B2, “Chimeric peptides as immunogens, antibodies thereto, and methods for immunization using chimeric peptides or antibodies” (Intellect Neurosciences, Inc., priority 1999, dated 2011).
For at least one compound, name, drawing or mass did not settle the structure. Residues, ends and D or L forms follow the SMILES beside them. *: point of attachment. Cbz = O=C(OCc1ccccc1)*

Chains of the proteins cited; added tags and fusions are not shown. Residues count along the entry.
UniProt P05067, 672-711 limits assumed: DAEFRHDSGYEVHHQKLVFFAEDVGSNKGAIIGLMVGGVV

How the values were obtained:
γ secretase = details: used at high concentrations; Higaki et al., 1995
Aβ = Aβ (Homo sapiens, UniProt P05067); details: Tomiyama et al., 1994
[1] = test system: Aβ-induced toxicity in cultured neurons; details: Tomiyama et al., 1994

Compound	activity of γ secretase (γ secretase)	Aβ aggregation (Aβ)	subsequent Aβ neurotoxicity [1]
CC(C)[C@H](NC(=O)OCc1ccccc1)C(=O)N[C@H](C=O)Cc1ccccc1 [MDL28170] (Cbz-Val-Phe-aldehyde)	appears to block		
CO[C@H]1/C=C/O[C@@]2(C)Oc3c(C)c(O)c4c(O)c(c(/C=N/N5CCN(C)CC5)c(O)c4c3C2=O)NC(=O)/C(C)=C\C=C\[C@H](C)[C@H](O)[C@@H](C)[C@@H](O)[C@@H](C)[C@H](OC(C)=O)[C@@H]1C [rifampicin]		prevents	prevents
